According to patent US8471021B2, “Sulfur containing heterocycle-fused naphthalene tetracarboxylic acid diimide derivatives, preparation method and use thereof” (Shanghai Institute Of Organic Chemistry, Chinese Academy Of …, priority 2009, dated 2013):

Test: Organic thin-film transistor (OTFT) devices made by solution process with the compound as semiconducting layer; electrical performance
Conditions: for Average electron mobility μe / Maximum electron mobility μe: room temperature in air, ≧10 devices; for electron mobility / on/off ratio / threshold voltage: transfer curve of one OTFT device (figure legend)

SMILES	Current on/off ratio Ion/Ioff (annealing 120° C.)	Threshold voltage VT (annealing 120° C.)	Average electron mobility μe (annealing 120° C.)	Maximum electron mobility μe (annealing 120° C.)	Current on/off ratio Ion/Ioff (annealing 160° C.)	Threshold voltage VT (annealing 160° C.)	Average electron mobility μe (annealing 160° C.)	Maximum electron mobility μe (annealing 160° C.)	Current on/off ratio Ion/Ioff (annealing 180° C.)	Threshold voltage VT (annealing 180° C.)	Average electron mobility μe (annealing 180° C.)	Maximum electron mobility μe (annealing 180° C.)	electron mobility	on/off ratio	threshold voltage
CCCCCCCCCCCCC(CCCCCCCCCC)Cn1c(=O)c2c3sc(=C(C#N)C#N)sc3c3c(=O)n(CC(CCCCCCCCCC)CCCCCCCCCCCC)c(=O)c4c5sc(=C(C#N)C#N)sc5c(c1=O)c2c34 (stereo not drawn) [Compound 1, N,N′-di(2-decyltetradecyl)-[2,3-d:6,7-d′]-bi[2-(1,3-dithiacyclopenten-2-ylidene)-2-malononitrile]-naphthalene-1,4,5,8-tetracarboxylic acid diimide]	10^5-10^6	−2-4 V	(0.09) cm^2/Vs	0.12 cm^2/Vs	10^5-10^6	−2-5 V	(0.15) cm^2/Vs	0.20 cm^2/Vs	10^5-10^6	−2-1 V	(0.14) cm^2/Vs	0.15 cm^2/Vs			
CCCCCCC(CCCC)Cn1c(=O)c2c3sc(=C(C#N)C#N)sc3c3c(=O)n(CC(CCCC)CCCCCC)c(=O)c4c5sc(=C(C#N)C#N)sc5c(c1=O)c2c34 (stereo not drawn) [Compound 5, N,N′-di(2-butyloctyl)-[2,3-d:6,7-d′]-bi[2-(1,3-dithiacyclopenten-2-ylidene)-2-malononitrile]-naphthalene-1,4,5,8-tetracarboxylic acid diimide]	10^5-10^6		(0.11) cm^2/Vs	0.12 cm^2/Vs	10^5-10^6	8-14 V	(0.14) cm^2/Vs	0.15 cm^2/Vs	10^6-10^8	7-14 V	(0.19) cm^2/Vs	0.21 cm^2/Vs			
CCCCCCCCC(CCCCCC)Cn1c(=O)c2c3sc(=C(C#N)C#N)sc3c3c(=O)n(CC(CCCCCC)CCCCCCCC)c(=O)c4c5sc(=C(C#N)C#N)sc5c(c1=O)c2c34 (stereo not drawn) [Compound 3, N,N′-di(2-hexyldecyl)-[2,3-d:6,7-d′]-bi[2-(1,3-dithiacyclopenten-2-ylidene)-2-malononitrile]-naphthalene-1,4,5,8-tetracarboxylic acid diimide]	10^5-10^6	2-10 V	(0.09) cm^2/Vs	0.10 cm^2/Vs	10^5-10^6	2-10 V	(0.13) cm^2/Vs	0.14 cm^2/Vs	10^5-10^6	5-11 V	(0.17) cm^2/Vs	0.19 cm^2/Vs			
CCCCCCCCCCCCC(CCCCCCCCCC)CN1C(=O)c2c3sc(C#N)c(C#N)c3c3c4c(c5sc(C#N)c(C#N)c5c(c24)C1=O)C(=O)N(CC(CCCCCCCCCC)CCCCCCCCCCCC)C3=O (stereo not drawn) [Compound 18, N,N′-di(2-decyl-tetradecyl)-[2,3-d:6,7-d′]-bi[α,β-dicyanothiophene]-naphthalene-1,4,5,8-tetracarboxylic acid diimide]	10^4-10^5	2-11 V	(6 × 10^−4) cm^2/Vs	1.2 × 10^−3 cm^2/Vs									10^−3 cm^2/Vs	10^5	10 V
CCCCCCCCC(CCCCCC)CCn1c(=O)c2c3sc(=C(C#N)C#N)sc3c3c(=O)n(CCC(CCCCCC)CCCCCCCC)c(=O)c4c5sc(=C(C#N)C#N)sc5c(c1=O)c2c34 (stereo not drawn) [Compound 7, N,N′-di(3-hexylundecyl)-[2,3-d:6,7-d′]-bi[2-(1,3-dithiacyclopenten-2-ylidene)-2-malononitrile]-naphthalene-1,4,5,8-tetracarboxylic acid diimide]	10^6-10^7	−1-5 V	(0.12) cm^2/Vs	0.14 cm^2/Vs	10^6-10^7	−1-7 V	(0.24) cm^2/Vs	0.26 cm^2/Vs	10^6-10^7	−2-4 V	(0.18) cm^2/Vs	0.20 cm^2/Vs			
CCCCCCCCCCC(CCCCCCCC)Cn1c(=O)c2c3sc(=C(C#N)C(=O)OCC)sc3c3c(=O)n(CC(CCCCCCCC)CCCCCCCCCC)c(=O)c4c5sc(=C(C#N)C(=O)OCC)sc5c(c1=O)c2c34 (stereo not drawn) [Compound 9, N,N′-di(2-octyldodecyl)-[2,3-d:6,7-d′]-bi[ethyl 2-(1,3-dithiacyclopenten-2-ylidene)-2-cyanoacetate]-naphthalene-1,4,5,8-tetracarboxylic acid diimide]	10^3-10^4	32-45 V	(3 × 10^−4) cm^2/Vs	5 × 10^−4 cm^2/Vs	10^3-10^4	12-35 V	(9 × 10^−4) cm^2/Vs	1.1 × 10^−3 cm^2/Vs	10^3-10^4	10-16 V	(2 × 10^−3) cm^2/Vs	4 × 10^−3 cm^2/Vs	10^−3 cm^2/Vs	10^4	8 V
CCCCCCC(CCCCCC)Cn1c(=O)c2c3sc(=C(C#N)C#N)sc3c3c(=O)n(CC(CCCCCC)CCCCCC)c(=O)c4c5sc(=C(C#N)C#N)sc5c(c1=O)c2c34 [Compound 4, N,N′-di(2-hexyloctyl)-[2,3-d:6,7-d′]-bi[2-(1,3-dithiacyclopenten-2-ylidene)-2-malononitrile]-naphthalene-1,4,5,8-tetracarboxylic acid diimide]	10^5-10^6	1-5 V	(0.07) cm^2/Vs	0.08 cm^2/Vs	10^5-10^6	3-11 V	(0.15) cm^2/Vs	0.16 cm^2/Vs	10^5-10^6	2-10 V	(0.20) cm^2/Vs	0.21 cm^2/Vs			
CCCCCCCCCCC(CCCCCCCC)Cn1c(=O)c2c3sc(=C(C#N)C#N)sc3c3c(=O)n(CC(CCCCCCCC)CCCCCCCCCC)c(=O)c4c5sc(=C(C#N)C#N)sc5c(c1=O)c2c34 (stereo not drawn) [Compound 2, N,N′-di(2-octyldodecyl)-[2,3-d:6,7-d′]-bi[2-(1,3-dithiacyclopenten-2-ylidene)-2-malononitrile]-naphthalene-1,4,5,8-tetracarboxylic acid diimide]	10^5-10^6	−2-6 V	(0.10) cm^2/Vs	0.14 cm^2/Vs	10^5-10^6	0-8 V	(0.20) cm^2/Vs	0.25 cm^2/Vs	10^5-10^7	0-5 V	(0.32) cm^2/Vs	0.42 cm^2/Vs	0.36 cm^2/Vs	10^7	4 V
CCCCCCCCCCC(CCCCCCCC)Cn1c(=O)c2c3sc(C#N)c(C#N)sc3c3c(=O)n(CC(CCCCCCCC)CCCCCCCCCC)c(=O)c4c5sc(C#N)c(C#N)sc5c(c1=O)c2c34 (stereo not drawn) [Compound 15, N,N′-di(2-octyl-dodecyl)-[2,3-d:6,7-d′]-bi[1,4-dithiacyclohexadiene-2,3-dicarbonitrile]-naphthalene-1,4,5,8-tetracarboxylic acid diimide]	10^4-10^5	20-40 V	(1.2 × 10^−3) cm^2/Vs	1.5 × 10^−3 cm^2/Vs	10^4-10^5	10-35 V	(1.3 × 10^−2) cm^2/Vs	1.6 × 10^−2 cm^2/Vs	10^4-10^5	20-41 V	(5 × 10^−3) cm^2/Vs	7 × 10^−3 cm^2/Vs	0.016 cm^2/Vs	10^6	10 V
